# Counter-ions that a name gives are not always drawn. About 130 (2.5%) of roughly 5,300 compounds showed an effect of 50% or more. The list shows a part of the results.
# System: M. mycetomatis strain mm55
# Conditions: primary screen, metabolic activity vs growth control; 96 h, 2 µM; inhibitor
row,Structure (SMILES),% viability [%]
1,"Cc1cccc(-c2n[nH]cc2-c2ccc(F)c(-c3cnn(CCO)c3)c2)n1 [ONC0003583, r268712]",110.6
2,"COc1ccc(CN2CCNCC2)c(OC)c1OC [ONC0005391, trimetazidine dihydrochloride]",101.6
3,"O=C(CCCCCN1C(=O)c2cccc3cccc(c23)C1=O)NO [ONC0003573, scriptaid]",108.4
4,"C=C[C@@]1(C)CC(=O)[C@]2(O)[C@@]3(C)[C@@H](O)CCC(C)(C)[C@@H]3[C@H](O)[C@H](OC(C)=O)[C@@]2(C)O1 [ONC0000047, forskolin]",87.43
5,"CCN(CC)C(=S)SSC(=S)N(CC)CC [ONC0000627, disulfiram]",104.4
6,"Cc1cc(OCCCS(C)(=O)=O)cc(C)c1-c1cccc(COc2ccc3c(c2)OC[C@H]3CC(=O)O)c1 [ONC0004585, tak875]",77.97
7,"COc1cc(CCc2cc(NC(=O)c3ccc(N4C[C@@H](C)N[C@@H](C)C4)cc3)n[nH]2)cc(OC)c1 [ONC0005224, azd4547]",125.2
8,"O=C(N[C@H]1CN2CCC1CC2)c1c[nH]c2ccsc2c1=O [ONC0005516, pumosetrag]",106.8
9,"CCC(=N\O)/C(C)=C/c1ccc(F)cc1 [ONC0004368, a967079]",160.4
10,"CC1(C)S[C@@H]2[C@H](NC(=O)C(C(=O)O)c3ccccc3)C(=O)N2[C@H]1C(=O)O (stereo partly shown) [ONC0000762, carbenicillin disodium]",63.52
11,"COc1ccc(-c2nc(-c3ccc(-c4cccc(Cl)c4)o3)[nH]c2-c2ccc(OC)cc2)cc1 [ONC0000825, neurodazine]",67.04
12,"COC(=O)N[C@H](C(=O)N1CCC[C@H]1c1nc(-c2ccc(-c3ccc(-c4c[nH]c([C@@H]5CCCN5C(=O)[C@@H](NC(=O)OC)C(C)C)n4)cc3)cc2)c[nH]1)C(C)C [ONC0004614, daclatasvir bms790052]",88.33
13,"NC(=O)N1C(=O)/C(=C(\O)c2cccs2)c2cc(Cl)ccc21 [ONC0001359, tenidap]",90.53
14,"CCN(CC)CCOC(=O)C(Cc1cccc2ccccc12)CC1CCCO1 (stereo not shown) [ONC0002388, nafronyl oxalate]",125.3
15,"C[C@H](N)[C@H](O)c1cccc(O)c1 [ONC0003110, metaraminol bitartrate]",76.38
16,"COC(=O)c1ccccc1NC(=O)c1ccc(F)cc1 [ONC0000191, exo1]",65.33
17,"CC(C)N(CCCNC(=O)Nc1ccc(C(C)(C)C)cc1)C[C@H]1O[C@@H](n2cc(Br)c3c(N)ncnc32)[C@H](O)[C@@H]1O [ONC0004320, sgc 0946]",83.24
18,"COc1ccc(-c2csc(NC(=O)[C@H]3CCCCN3S(=O)(=O)c3ccc(C)cc3)n2)cc1 [ONC0002773, ml277]",70.28
19,"CC1=C(CC(=O)O)c2cc(F)ccc2/C1=C\c1ccc(S(C)(=O)=O)cc1 [ONC0003310, exisulind]",74.23
20,"CCCCc1nc2ccn(CC(=O)N(C)C)c(=O)c2n1Cc1ccc(-c2ccccc2-c2nnn[nH]2)cc1 [ONC0001732, emd66684]",80.28

row,Structure (SMILES),% viability [%]
1,"CS(=O)(=O)c1ccc(-c2cc(Br)sc2-c2ccc(F)cc2)cc1 [ONC0001581, dup697]",84.54
2,"O=C1CN(/N=C/c2ccc([N+](=O)[O-])o2)C(=O)N1 [ONC0000476, nitrofurantoin]",64.94
3,"c1ccc2c(c1)CN1CCCC1=N2 [ONC0003505, desoxypeganine]",51.7
4,"Cc1ccccc1OCC(O)CO (stereo not shown) [ONC0000654, mephenesin]",110.3
5,"C[C@H]1[C@H](C)CC[C@]2(C(=O)O)CC[C@]3(C)C(=CC[C@@H]4[C@@]5(C)C[C@@H](O)[C@H](O)C(C)(C)[C@@H]5CC[C@]43C)[C@H]12 [ONC0001060, corosolic acid]",51.55
6,"CC(C)(C)C(=O)C(Oc1ccc(Cl)cc1)n1ccnc1 (stereo not shown) [ONC0004273, climbazole]",94.51
7,"Cc1cc(C(=CNc2ccc(Cl)cc2)C(=O)Nc2ccc(Cl)cc2)on1 [ONC0000028, ccmi]",80.11
8,"Cc1nc2sccn2c(=O)c1CCN1CCC(=C(c2ccccc2)c2ccc(F)cc2)CC1 [ONC0000077, r59022]",101.8
9,"CN[C@@H]1[C@@H](O)[C@@H](O[C@@H]2[C@@H](O)[C@H](O[C@H]3OC(CN)=CC[C@H]3N)[C@@H](N)C[C@H]2N)OC[C@]1(C)O [ONC0000954, sisomicin sulfate]",75.58
10,"COc1cc(OC)cc(C(=O)NNC(=O)Nc2cccc3ccccc23)c1 [ONC0001582, tco9311]",89.25
11,"O=C(N[C@H]1CN2CCC1CC2)c1ccc(Cl)cc1 [ONC0001339, pnu282987]",105.8
12,"CN[C@H]1C(=O)N[C@@H]2Cc3ccc(cc3)Oc3cc4cc(c3O[C@@H]3O[C@H](C(=O)O)[C@@H](O)[C@H](O)[C@H]3NC(=O)CCCCCCCCC(C)C)Oc3ccc(cc3Cl)[C@@H](O)[C@@H]3NC(=O)[C@H](NC(=O)[C@@H]4NC(=O)[C@@H](NC2=O)c2cc(cc(O)c2Cl)Oc2cc1ccc2O)c1ccc(O)c(c1)-c1c(O[C@H]2O[C@H](CO)[C@@H](O)[C@H](O)[C@@H]2O)cc(O)cc1[C@@H](C(=O)NCCCN(C)C)NC3=O [ONC0002203, dalbavancin]",90.32
13,"N#Cc1c(N)nc(SCc2ncc[nH]2)c(C#N)c1-c1ccc(O)cc1 [ONC0002651, luf5834]",74.61
14,"O=C(O)c1ccccc1Nc1cc(Cl)ccc1C(=O)O [ONC0003876, lobenzarit disodium]",86.47
15,"CC1(O)CCC(C(C)(C)O)CC1 (stereo not shown) [ONC0005315, terpene hydrate]",59.84
16,"COc1cc(N2CCC(N)CC2)ccc1Nc1ncc(Cl)c(-c2c[nH]c3ccccc23)n1 [ONC0005125, azd3463]",85.95
17,"N#Cc1ccc(N2CCN(C(=O)COc3ccc4[nH]cc(CCN)c4c3)CC2)cc1 [ONC0001933, donitriptan]",109.4
18,"CC(C)[C@H]1c2ccc(F)cc2CC[C@@]1(CCN(C)CCCc1nc2ccccc2[nH]1)OC(=O)C1CC1 [ONC0001331, nnc550396]",118
19,"COc1cc(O)c2c(c1)C(=O)c1cc(C)cc(O)c1C2=O [ONC0004501, rheochrysidin physcione]",41.39
20,"CCOC(=O)n1ccn(C)c1=S [ONC0003973, carbimazole]",65.07

# Sorted by length of the SMILES (descending): 15 of the compounds above
row,Structure (SMILES),% viability [%]
12,"CN[C@H]1C(=O)N[C@@H]2Cc3ccc(cc3)Oc3cc4cc(c3O[C@@H]3O[C@H](C(=O)O)[C@@H](O)[C@H](O)[C@H]3NC(=O)CCCCCCCCC(C)C)Oc3ccc(cc3Cl)[C@@H](O)[C@@H]3NC(=O)[C@H](NC(=O)[C@@H]4NC(=O)[C@@H](NC2=O)c2cc(cc(O)c2Cl)Oc2cc1ccc2O)c1ccc(O)c(c1)-c1c(O[C@H]2O[C@H](CO)[C@@H](O)[C@H](O)[C@@H]2O)cc(O)cc1[C@@H](C(=O)NCCCN(C)C)NC3=O [ONC0002203, dalbavancin]",90.32
17,"CC(C)N(CCCNC(=O)Nc1ccc(C(C)(C)C)cc1)C[C@H]1O[C@@H](n2cc(Br)c3c(N)ncnc32)[C@H](O)[C@@H]1O [ONC0004320, sgc 0946]",83.24
18,"CC(C)[C@H]1c2ccc(F)cc2CC[C@@]1(CCN(C)CCCc1nc2ccccc2[nH]1)OC(=O)C1CC1 [ONC0001331, nnc550396]",118
6,"Cc1cc(OCCCS(C)(=O)=O)cc(C)c1-c1cccc(COc2ccc3c(c2)OC[C@H]3CC(=O)O)c1 [ONC0004585, tak875]",77.97
11,"COc1ccc(-c2nc(-c3ccc(-c4cccc(Cl)c4)o3)[nH]c2-c2ccc(OC)cc2)cc1 [ONC0000825, neurodazine]",67.04
1,"Cc1cccc(-c2n[nH]cc2-c2ccc(F)c(-c3cnn(CCO)c3)c2)n1 [ONC0003583, r268712]",110.6
7,"Cc1cc(C(=CNc2ccc(Cl)cc2)C(=O)Nc2ccc(Cl)cc2)on1 [ONC0000028, ccmi]",80.11
13,"NC(=O)N1C(=O)/C(=C(\O)c2cccs2)c2cc(Cl)ccc21 [ONC0001359, tenidap]",90.53
14,"CCN(CC)CCOC(=O)C(Cc1cccc2ccccc12)CC1CCCO1 (stereo not shown) [ONC0002388, nafronyl oxalate]",125.3
3,"O=C(CCCCCN1C(=O)c2cccc3cccc(c23)C1=O)NO [ONC0003573, scriptaid]",108.4
6,"CC(C)(C)C(=O)C(Oc1ccc(Cl)cc1)n1ccnc1 (stereo not shown) [ONC0004273, climbazole]",94.51
11,"O=C(N[C@H]1CN2CCC1CC2)c1ccc(Cl)cc1 [ONC0001339, pnu282987]",105.8
15,"C[C@H](N)[C@H](O)c1cccc(O)c1 [ONC0003110, metaraminol bitartrate]",76.38
3,"c1ccc2c(c1)CN1CCCC1=N2 [ONC0003505, desoxypeganine]",51.7
20,"CCOC(=O)n1ccn(C)c1=S [ONC0003973, carbimazole]",65.07

# (cont.)

row,Structure (SMILES),% viability [%]
1,"Cc1oc2ccccc2c1CNC(=O)NCc1cccs1 [ONC0002994, s07662]",96.39
2,"COc1ccc(/C=C\c2cc(OC)c(OC)c(OC)c2)cc1O [ONC0002857, combretastatina4]",100.8
3,"CC(=O)NC(Cc1ccc(O)cc1)C(=O)O (stereo not shown) [ONC0003721, nacetyltyrosine]",120.2
4,"N=C(N)NC(=O)c1cnccn1 [ONC0003566, pyrazinoylguanidine]",115.5
5,"COc1cc(C(C)=O)ccc1OCCCN1CCC(c2noc3cc(F)ccc23)CC1 [ONC0004763, iloperidone fanapt]",108.7
6,"CNC(=O)[C@@H](c1ccccc1)N1CCc2cc(OC)c(OC)cc2[C@@H]1CCc1ccc(C(F)(F)F)cc1 [ONC0002030, almorexant hydrochloride]",100.2
7,"CCCC1O[C@@H]2C[C@H]3[C@@H]4CCC5=CC(=O)C=C[C@]5(C)[C@H]4[C@@H](O)C[C@]3(C)[C@]2(C(=O)CO)O1 (stereo partly shown) [ONC0005559, budesonide]",51.58
8,"CCOc1ccc(Cc2cc([C@]34OC[C@](CO)(O3)[C@@H](O)[C@H](O)[C@H]4O)ccc2Cl)cc1 [ONC0000955, ertugliflozin]",63.05
9,"CC(C)n1nnc2cc(C(=O)O)ccc21 [ONC0001316, ibc293]",69.16
10,"COC(=O)c1c(C)[nH]c(C)c1C(=O)c1ccccc1Cc1ccccc1 [ONC0001817, fpl64176]",119.1
11,"CC(C)CN(C[C@@H](O)[C@H](Cc1ccccc1)NC(=O)[C@@H](NC(=O)CNCc1cccc(F)c1)C(C)(C)C)S(=O)(=O)c1cccc(N)c1 [ONC0001912, dpc681]",78.72
12,"c1cc(-c2cnn3cc(-c4ccc(N5CCNCC5)cc4)cnc23)c2cccnc2c1 [ONC0005141, ldn212854]",77.57
13,"COc1cccc(-c2ccc([C@@H](Oc3cc(-c4ccc(C[C@H](N)C(=O)O)cc4)nc(N)n3)C(F)(F)F)cc2)c1 [ONC0002287, lx1031]",73.48
14,"CN1c2c(oc(=O)n(-c3ccccn3)c2=O)-c2ccccc2S1(=O)=O [ONC0005427, droxicam]",134.7
15,"Cc1cccn2c(=O)c(/C=C(\C#N)c3nc4ccccc4s3)c(Oc3ccc(F)cc3)nc12 [ONC0003502, ccg63808]",42.44
16,"CCOC(=O)c1ncn2c1[C@@H]1CCCN1C(=O)c1cc(OC)ccc1-2 [ONC0001700, l655708]",79.81
17,"COc1ccc(-c2sc(NC(=O)C(C)(C)C)nc2C)cc1S(=O)(=O)Nc1ccc(O)cc1 [ONC0002488, pi4kiiibetain10]",64.73
18,"CC(C)C[C@@H](C(=O)N[C@@H](Cc1ccc(OCc2ccccc2)cc1)C(=O)NC(C)(C)C)N(C)Cc1ccc(C(C)(C)C)cc1 [ONC0001572, pd173212]",122.5

# Source: paper PMC12670160, “A drug-repurposing screen of FDA- and EMA-approved drugs identifies two NF-κB inhibitors active against eumycetoma” (Journal of Antimicrobial Chemotherapy, 2025)
